The values that follow come from PubChem BioAssay AID330 (DTP/NCI, 2004).

The subject of the experiment is P388 leukemia ip, CD2F1 mice, survival T/C. Nature of the experiment: NCI In Vivo Anticancer Drug Screen. Data for tumor model P388 Leukemia (intraperitoneal) in CD2F1 (CDF1) mice. The settings on record: T/C endpoint: median survival time, higher T/C = longer survival.
Where [1] appears, read: dose: 50.0 mg/kg/injection, schedule: Q01DX009 (ip), vehicle: Klucel (hydroxypropylcellulose) (HPC).
[2] abbreviates: dose: 100.0 mg/kg/injection, schedule: Q01DX009 (ip), vehicle: Klucel (hydroxypropylcellulose) (HPC).
[3] abbreviates: dose: 200.0 mg/kg/injection, schedule: Q01DX009 (ip), vehicle: Klucel (hydroxypropylcellulose) (HPC).

Molecules are shown by their SMILES. The list shows only some results of the screen, not a fair sample: it is rich in T/C values a quarter to a half above the control, in often repeated tests (any T/C) and in doses without a T/C. Other doses and runs of a compound stand elsewhere. T/C: endpoint of the treated group in % of that of the vehicle group. Some doses have a count of surviving animals in place of a T/C: the source files T/C as zero there, which appears to mark a toxic dose or a test without result, not a measured value. Some doses without a T/C left all or most animals alive at the check, yet need not have been tolerated: the source hardly ever lists a survival T/C far under the control, and the zero likely stands for such cases as well. Counts of survivors are from the toxicity check (mostly the fifth day) where no day follows; animals may have died later. Schedules are NCI's codes, taken here to give the interval after Q, in days (D) or hours (H), and the number of doses after X. For survival time, this PubChem deposit counts one and a half times the control or more as active, and values a quarter to a half above the control carry no call in these data; other NCI protocols may use other cut-offs. Some T/C values carry the count of animals alive at the toxicity check (mostly the fifth day); where none is given, no animal had died by that day.

For `CC(C)SC=O`, the survivor count (dose: 400.0 mg/kg/injection, schedule: Q01DX009 (ip), vehicle: Klucel (hydroxypropylcellulose) (HPC)) is 3 of 6.

With `CC(=O)c1cc(C)[nH]c1C`, the survivor count is, setting by setting: (dose: 300.0 mg/kg/injection, schedule: Q01DX009 (ip), vehicle: saline with Tween-80) 0 of 6; (dose: 600.0 mg/kg/injection, schedule: Q01DX009 (ip), vehicle: saline with Tween-80) 0 of 6.

On to `Nc1cccc2c1-c1ccccc1C2=O`, for which the survivor count by setting is: (dose: 50.0 mg/kg/injection, schedule: Q01DX005 (ip), vehicle: saline with Tween-80) 5 of 5; (dose: 200.0 mg/kg/injection, schedule: Q01DX005 (ip), vehicle: saline with Tween-80) 5 of 5.

Take `N#CCC[P+](CCC#N)(CCC#N)CCN1C(=O)c2ccccc2C1=O`: where the note is “dose: 400.0 mg/kg/injection, schedule: Q01DX009 (ip), vehicle: water”, the survivor count was 2 of 6.

With `OC1(c2ccncc2)C=CCC1` (stereo unspecified), the survivor count is 5 of 6 (dose: 200.0 mg/kg/injection, schedule: Q04DX002 (ip), vehicle: saline with Tween-80) and 0 of 6 (dose: 400.0 mg/kg/injection, schedule: Q04DX002 (ip), vehicle: saline with Tween-80).

As to `O=C1c2ccccc2C(=O)N1CC[P+](c1ccc(Cl)cc1)(c1ccc(Cl)cc1)c1ccc(Cl)cc1`, the survivor count (dose: 50.0 mg/kg/injection, schedule: Q01DX009 (ip), vehicle: other) was 3 of 6; the survivor count (dose: 100.0 mg/kg/injection, schedule: Q01DX009 (ip), vehicle: other) is listed as 0 of 6; the survivor count (dose: 200.0 mg/kg/injection, schedule: Q01DX009 (ip), vehicle: other) was 0 of 6; the survivor count (dose: 400.0 mg/kg/injection, schedule: Q01DX009 (ip), vehicle: other) is on record as 0 of 6.

As for `O=C1NCCCC1(Cl)Cl`, the survivor count under setting [1] is 6 of 6, the survivor count under setting [2] is given as 6 of 6 and the survivor count under setting [3] is listed as 6 of 6.

Regarding `c1ccc(C2=C([P+](c3ccccc3)(c3ccccc3)c3ccccc3)CCN2)cc1`, the T/C (dose: 1.56 mg/kg/injection, schedule: Q01DX009 (ip), vehicle: saline with Tween-80) is 129 % of control; the T/C (dose: 3.12 mg/kg/injection, schedule: Q01DX009 (ip), vehicle: saline with Tween-80) is 129 % of control; the T/C (dose: 6.25 mg/kg/injection, schedule: Q01DX009 (ip), vehicle: saline with Tween-80) was 133 % of control; the T/C (dose: 9.38 mg/kg/injection, schedule: Q01DX009 (ip), vehicle: saline with Tween-80) is 129 % of control [4 of 6 alive]. In addition, the survivor count reads like this: (dose: 12.5 mg/kg/injection, schedule: Q01DX009 (ip), vehicle: saline with Tween-80) 6 of 6; (dose: 25.0 mg/kg/injection, schedule: Q01DX009 (ip), vehicle: saline with Tween-80) 3 of 6; (dose: 50.0 mg/kg/injection, schedule: Q01DX009 (ip), vehicle: saline with Tween-80) 0 of 6.

Turning to `CC1C=CC(c2ccccc2)C2C(=O)OC(=O)C12` (stereo unspecified), the survivor count (dose: 240.0 mg/kg/injection, schedule: Q01DX005 (ip), vehicle: saline with Tween-80) is reported as 0 of 6.

As for `O=C(NCC(CC(NC(=O)c1ccccc1)C(=O)O)NC(=O)c1ccccc1)c1ccccc1` (stereo unspecified), the survivor count under setting [1] was 6 of 6.

Consider `O=C(CS)Nc1ccccn1`, for which the survivor count is reported as 6 of 6 under setting [2] and 0 of 6 under setting [3].
